Reference: article PMC9282937
These are yes or no findings as the source states them, for the method shown. In cells and extracts the contact can be indirect. Some entries that bind do so weakly or less than the wild type.

Protein sequences, listed by entry. Tags and fused reporters are not part of them.
UniProt Q12778: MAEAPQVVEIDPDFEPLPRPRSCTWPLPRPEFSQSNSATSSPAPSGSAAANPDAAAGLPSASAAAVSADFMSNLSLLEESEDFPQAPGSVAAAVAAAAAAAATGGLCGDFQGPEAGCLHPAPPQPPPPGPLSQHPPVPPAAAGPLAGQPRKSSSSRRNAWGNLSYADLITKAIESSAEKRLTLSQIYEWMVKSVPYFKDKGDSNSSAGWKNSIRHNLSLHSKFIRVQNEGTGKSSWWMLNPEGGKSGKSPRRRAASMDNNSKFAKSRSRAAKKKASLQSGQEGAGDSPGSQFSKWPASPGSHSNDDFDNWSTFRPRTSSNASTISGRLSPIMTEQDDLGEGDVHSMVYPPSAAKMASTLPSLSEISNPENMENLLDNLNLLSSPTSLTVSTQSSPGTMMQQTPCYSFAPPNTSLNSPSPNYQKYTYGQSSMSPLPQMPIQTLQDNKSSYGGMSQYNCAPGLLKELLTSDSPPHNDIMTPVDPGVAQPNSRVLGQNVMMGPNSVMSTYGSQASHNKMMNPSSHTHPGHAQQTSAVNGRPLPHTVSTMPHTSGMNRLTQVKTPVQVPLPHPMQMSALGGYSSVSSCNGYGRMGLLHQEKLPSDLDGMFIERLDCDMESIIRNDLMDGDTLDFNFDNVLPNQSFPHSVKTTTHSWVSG

Biological target: T1, STAT6 (human (endogenous in THP-1)) (UniProt P42226)
T1 sequence: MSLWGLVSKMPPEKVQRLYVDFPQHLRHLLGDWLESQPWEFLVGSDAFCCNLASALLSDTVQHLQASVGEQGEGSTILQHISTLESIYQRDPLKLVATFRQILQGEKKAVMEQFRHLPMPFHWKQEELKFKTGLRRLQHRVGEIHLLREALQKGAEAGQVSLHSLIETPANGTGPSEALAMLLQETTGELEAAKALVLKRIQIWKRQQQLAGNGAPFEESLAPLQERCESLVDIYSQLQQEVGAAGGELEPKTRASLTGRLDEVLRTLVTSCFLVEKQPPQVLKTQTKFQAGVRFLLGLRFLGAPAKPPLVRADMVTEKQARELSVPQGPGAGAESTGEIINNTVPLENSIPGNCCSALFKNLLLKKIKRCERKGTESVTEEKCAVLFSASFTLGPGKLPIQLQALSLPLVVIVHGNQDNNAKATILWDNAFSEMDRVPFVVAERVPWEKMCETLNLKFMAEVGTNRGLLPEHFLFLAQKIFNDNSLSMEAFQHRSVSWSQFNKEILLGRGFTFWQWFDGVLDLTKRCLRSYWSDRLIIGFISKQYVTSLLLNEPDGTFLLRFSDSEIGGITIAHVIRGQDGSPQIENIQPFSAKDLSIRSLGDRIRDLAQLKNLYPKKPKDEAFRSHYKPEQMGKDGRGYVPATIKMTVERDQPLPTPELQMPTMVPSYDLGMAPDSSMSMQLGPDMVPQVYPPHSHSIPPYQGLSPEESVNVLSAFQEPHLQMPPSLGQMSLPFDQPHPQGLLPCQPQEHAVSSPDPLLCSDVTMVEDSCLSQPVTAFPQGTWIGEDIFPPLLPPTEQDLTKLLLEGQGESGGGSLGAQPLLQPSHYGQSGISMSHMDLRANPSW
Experiment: co-IP; THP-1 macrophage lysates; precipitation with anti-STAT6 or anti-FOXO1 antibody against control IgG, immunoblots with anti-FOXO1 and anti-STAT6

With FOXO1 (from UniProt Q12778 1-655) the binding was “binds”.
